According to patent publication US20090074831A1, “LOCAL […] […] OF mTOR INHIBITORS IN COMBINATION WITH PEROXISOME PROLIFERATORS-ACTIVATED RECEPTOR STIMULATORS” (priority 2007, published 2009):
For part of these data: At least one read-out could not be matched to a standard name with certainty. At least one compound was matched to its structure with a doubt left.

Tests used:
[1] = content recovery of sirolimus/cilostazol coated stents; assay type: physicochemical
Porcine = test: Animal studies with rapamycin-coated stents, porcine; assay type: in vivo; settings: porcine and rabbit models; nonerodible polymeric stent coating, 35-430 ug/15-18 mm coronary stent; maximal at about twenty-eight to thirty days
Patients = Patients treated with a rapamycin-coated stent (Sirolimus FIM), QCA and IVUS effectiveness measures; assay type: in vivo, human; settings: angiographic and intravascular ultrasound measurements; sustained for at least one year
[2] = system: monocyte chemotactic protein (MCP-1); test: Cytokine levels in vascular tissue after delivery from a stent; assay type: in vivo; settings: delivered from a stent
[3] = in vitro release of sirolimus and cilostazol from dual drug coating; assay type: physicochemical; settings: single-layer sirolimus + cilostazol coating of FIG. 83
[4] = drug concentration in liquid formulations (liquid chromatography / HPLC assay); assay type: physicochemical
Source text: In accordance with exemplary embodiments of the present invention, a series of liquid formulations were developed for the local or regional delivery of water insoluble compounds such as sirolimus and its analogs, including CCl-779, ABT-578 and everolimus, through weeping balloons and catheter injection needles. […] These liquid formulations increase the apparent solubility of the pharmacologically active but water insoluble compounds by two to four orders of magnitude as compared to the solubility limits of the compounds in water. These liquid formulations rely on the use of a very small amount of organic solvents such as Ethanol (typically less than two percent) and a larger amount of safe amphiphilic (of or relating to a molecule having a polar, water soluble group attached to a non-polar, water insoluble […]) excipients such as polyethylene glycol (PEG 200, PEG 400) and vitamin E TPGS to enhance the solubility of the compounds. These liquid formulations of highly water insoluble compounds are stable and readily flowable at room temperature. Certain excipients, such as Vitamin E TPGS and BHT may be utilized to enhance the storage stability of sirolimus compounds through their anti-oxidation properties.
Table 9, shown below, summarizes the concentrations of the excipient, the co-solvents and the drug for four different liquid formulations in accordance with exemplary embodiments of the present invention.
As set forth above, a liquid formulation comprising 4 mg/ml of sirolimus may be achieved utilizing PEG 200 as the excipient and ethanol and water as the co-solvents. […] The high concentration of sirolimus is necessary to maintain an effective and high local concentration of sirolimus after delivery to the site. The liquid formulations are flowable at room temperature and are compatible with a number of delivery devices. […]

[5] = in vitro release kinetics from layered rapamycin / Panzem coating; assay type: physicochemical; settings: inner layer 45 percent Panzem, outer layer 40 percent rapamycin, EVA/BMA, no topcoat
[6] = stent configuration of FIG. 75 (200 μg BMA overcoat)
[7] = stent configuration of FIG. 77 (100 μg BMA overcoat)

Row | Compound | content recovery, percent of nominal drug content [1, 6] | content recovery, percent of nominal drug content [1, 7] | peak reduction in neointimal hyperplasia (Porcine) | human clinical response, neointimal hyperplasia inside the stent (Patients) | monocyte chemotactic protein (MCP-1) levels in the vascular wall [2] | in vitro release [3] | dilution with water at which sirolimus starts to precipitate out of solution ([4]; 4 mg/ml PEG 200 formulation) | concentration in the final solution (HPLC assay) ([4]; ethanol (less than two percent), Vitamin E TPGS and water) | concentration of sirolimus achieved in liquid formulation ([4]; ethanol two percent, water twenty-five percent, PEG 200 seventy-five percent) | in vitro elution compared with Panzem [5]
1 | O=C1CCc2cc(OCCCCc3nnnn3C3CCCCC3)ccc2N1 [cilostazol, 6[4-(1-cyclohexyl-1H-tetrazol-5-yl)-butoxy]-3,4-dihydro-2-(1H)-quinolinone] | 98% | 98% |  |  |  |  |  |  |  | 
2 | CO[C@H]1C[C@@H]2CC[C@@H](C)[C@@](O)(O2)C(=O)C(=O)N2CCCC[C@H]2C(=O)O[C@H]([C@H](C)C[C@@H]2CC[C@@H](O)[C@H](OC)C2)CC(=O)[C@H](C)/C=C(\C)[C@@H](O)[C@@H](OC)C(=O)[C@H](C)C[C@H](C)/C=C/C=C/C=C/1C [rapamycin] | 85% | 85% | fifty to fifty-five | essentially total abolition of neointimal hyperplasia inside the stent | highly effective in reducing monocyte chemotactic protein (MCP-1) levels in the vascular wall | ~35% | five to ten | 15000 µg/mL | 4000 µg/mL | elutes more slowly than Panzem®
